Measurements from paper PMC10964683.
No constants are given. Whether binding was seen depends on the method and setting. In cells and extracts the contact can be indirect. Some binding calls cover weakened binding; strength is not graded here.

Protein sequences, listed by entry. Tags and fused reporters are not part of them. Lines headed by an entry give the natural chain unless they say otherwise; changes in a name come on top.
UniProt Q05397: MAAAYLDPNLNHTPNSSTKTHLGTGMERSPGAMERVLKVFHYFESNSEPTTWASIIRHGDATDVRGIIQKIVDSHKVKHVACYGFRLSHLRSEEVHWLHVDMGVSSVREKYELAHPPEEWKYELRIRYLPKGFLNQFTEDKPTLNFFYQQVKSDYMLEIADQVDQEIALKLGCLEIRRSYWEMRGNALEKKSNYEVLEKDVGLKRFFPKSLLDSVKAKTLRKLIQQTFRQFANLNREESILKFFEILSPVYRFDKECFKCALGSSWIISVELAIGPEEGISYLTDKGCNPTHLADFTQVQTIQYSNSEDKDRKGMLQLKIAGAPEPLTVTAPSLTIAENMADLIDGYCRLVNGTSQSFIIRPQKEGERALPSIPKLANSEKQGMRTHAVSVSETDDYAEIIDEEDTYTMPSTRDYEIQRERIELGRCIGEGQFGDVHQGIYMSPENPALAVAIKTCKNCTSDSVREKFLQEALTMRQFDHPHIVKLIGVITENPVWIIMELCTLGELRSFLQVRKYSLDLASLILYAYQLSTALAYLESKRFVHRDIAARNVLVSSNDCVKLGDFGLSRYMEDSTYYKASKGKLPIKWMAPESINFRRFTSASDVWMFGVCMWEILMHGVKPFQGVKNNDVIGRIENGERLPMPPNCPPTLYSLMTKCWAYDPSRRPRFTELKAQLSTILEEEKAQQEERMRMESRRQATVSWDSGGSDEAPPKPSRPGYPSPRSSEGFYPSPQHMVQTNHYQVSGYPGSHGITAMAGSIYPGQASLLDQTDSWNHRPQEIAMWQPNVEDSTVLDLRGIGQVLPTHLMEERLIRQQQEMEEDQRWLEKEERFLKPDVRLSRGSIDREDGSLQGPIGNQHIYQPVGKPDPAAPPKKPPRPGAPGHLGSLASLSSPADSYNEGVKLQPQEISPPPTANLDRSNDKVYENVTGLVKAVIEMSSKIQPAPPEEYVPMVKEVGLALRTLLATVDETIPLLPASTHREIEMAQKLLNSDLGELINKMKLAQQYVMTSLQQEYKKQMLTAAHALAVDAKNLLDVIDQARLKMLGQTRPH
UniProt P05556: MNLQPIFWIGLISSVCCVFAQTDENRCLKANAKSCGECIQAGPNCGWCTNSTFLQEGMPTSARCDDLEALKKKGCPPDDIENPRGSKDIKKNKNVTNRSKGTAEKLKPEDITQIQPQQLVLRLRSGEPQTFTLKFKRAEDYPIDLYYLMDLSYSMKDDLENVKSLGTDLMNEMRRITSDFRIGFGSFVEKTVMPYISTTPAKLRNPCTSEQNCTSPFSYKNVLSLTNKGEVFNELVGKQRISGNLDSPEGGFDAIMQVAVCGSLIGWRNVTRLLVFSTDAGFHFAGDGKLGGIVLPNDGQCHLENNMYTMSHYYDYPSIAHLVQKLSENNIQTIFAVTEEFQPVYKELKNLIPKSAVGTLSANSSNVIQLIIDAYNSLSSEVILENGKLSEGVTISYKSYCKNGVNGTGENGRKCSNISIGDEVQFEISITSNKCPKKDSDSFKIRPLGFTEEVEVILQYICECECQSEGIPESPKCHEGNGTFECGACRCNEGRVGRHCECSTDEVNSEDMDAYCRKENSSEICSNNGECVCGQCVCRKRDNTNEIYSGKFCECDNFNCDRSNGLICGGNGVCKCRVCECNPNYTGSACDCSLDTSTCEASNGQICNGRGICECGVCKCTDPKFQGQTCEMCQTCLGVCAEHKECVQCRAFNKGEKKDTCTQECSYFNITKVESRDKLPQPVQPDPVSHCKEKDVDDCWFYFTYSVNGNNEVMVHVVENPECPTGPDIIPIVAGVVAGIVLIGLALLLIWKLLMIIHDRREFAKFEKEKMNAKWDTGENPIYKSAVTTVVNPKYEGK

Target: Focal adhesion kinase (human (endogenous in HASMCs)) (UniProt Q05397)
Assay: co-IP; HASMC lysate incubated with primary antibody (1:100) overnight at 4 °C, Protein G Sepharose beads 1 h, washed 3 times with lysis buffer, SDS-PAGE and Western blot; which antibody precipitated is not stated

binding: binds
Substance: integrin β1 (from UniProt P05556 21-798) (receptor)
